From the supplement of paper PMC11348887
Counter-ions that a name gives are not always drawn. Some of the results follow. Most values lie at the level of the controls, where differences are scatter. Where a SMILES comes first, the peptide text is derived from it. Bridges are numbered along the chain shown (N, C = ends). [ ]: non-standard residue; d: D form. Orn = NCCC[C@H](N)C(=O)O; Mpa = O=C(O)CCS

Legend:
Conditions in all cases: 5 µM; treatment: days 7-14 after plating, readout day 21
[1] = system: hPSC-derived cortical neurons (WA09); test: nucleus area z-score vs screen plate; higher = larger nuclei (more mature)
[2] = system: hPSC-derived cortical neurons (WA09); test: total neurite length per nucleus (MAP2) z-score; higher = more neurite growth
[3] = system: hPSC-derived cortical neurons (WA09); test: nucleus roundness z-score vs screen plate; higher = rounder nuclei (more mature)
[4] = system: hPSC-derived cortical neurons (WA09); test: KCl-induced FOS+/EGR-1+ double-positive nuclei fraction z-score (KCl minus unstimulated); higher = stronger activity-induced IEG response

| SMILES | nucleus area z-score [1] | total neurite length per nucleus (z-score) [2] | nucleus roundness z-score [3] | KCl-induced FOS+/EGR-1+ double-positive nuclei fraction z-score [4] |
| --- | --- | --- | --- | --- |
| Cc1cc(-n2c(=O)[nH]c(=O)n(C)c2=O)ccc1Oc1ccc(SC(F)(F)F)cc1 [Toltrazuril] | -0.0206 | -0.586 | 0.202 | -0.218 |
| CCCCNc1ncc2c(-c3ccc(CN4CCN(C)CC4)cc3)cn([C@H]3CC[C@H](O)CC3)c2n1 | -10.1 | -3.5 | -9.71 | 2.37 |
| Oc1ccc(Cl)c2cccnc12 [Cloxiquine] | 0.797 | -2.88 | -2.47 | -0.113 |
| CCN(CC)CC#CCOC(=O)C(O)(c1ccccc1)C1CCCCC1 (stereo not drawn) [Oxybutynin] | -0.618 | -1.32 | -1.07 | 0.0624 |
| CC1(C)O[C@@H]2C[C@H]3[C@@H]4CCC5=CC(=O)C=C[C@]5(C)[C@H]4[C@@H](O)C[C@]3(C)[C@]2(C(=O)CO)O1 [Desonide] | 2.74 | -1.98 | -1.53 | -0.666 |
| CCOc1ccc(C[C@H]2NC(=O)CCSSC[C@@H](C(=O)N3CCC[C@H]3C(=O)N[C@@H](CCCN)C(=O)NCC(N)=O)NC(=O)[C@H](CC(N)=O)NC(=O)[C@H]([C@@H](C)O)NC(=O)[C@H]([C@@H](C)CC)NC2=O)cc1 [Atosiban Acetate] ([Mpa][dY](Et)ITNCP[Orn]G-NH2; disulfide 1-6) | -0.262 | 0.595 | 0.885 | 2.01 |
| N=C(N)c1ccc(OCCCCCOc2ccc(C(=N)N)cc2)cc1 [Pentamidine] | -2.74 | -5.62 | -7.44 | -2.06 |
| OC[C@@H](O)CN1CCN(c2ccccc2)CC1 [Levodropropizine] | 0.554 | 0.667 | -0.355 | 1.77 |
| O=C(Nc1nc2cccc(-c3ccc(CN4CCS(=O)(=O)CC4)cc3)n2n1)C1CC1 [Filgotinib (GLPG0634)] | 1.73 | 0.203 | 0.625 | 0.437 |
| CC(=O)O[C@H]1Cc2ccccc2N(C(N)=O)c2ccccc21 [Eslicarbazepine Acetate] | 0.122 | 0.672 | 0.438 | -0.0801 |
| C=CC(=O)Nc1cc(Nc2nccc(-c3cn(C)c4ccccc34)n2)c(OC)cc1N(C)CCN(C)C | -11.9 | -2.55 | -4.14 | 3.62 |
| Cn1c(=O)c2c(ncn2CC2OCCO2)n(C)c1=O [Doxofylline] | 0.198 | 0.495 | -1.02 | -0.771 |
| O=C1OCCN1/N=C/c1ccc([N+](=O)[O-])o1 [Furazolidone] | -0.328 | -1.74 | -0.776 | -0.0409 |
| CC(C)(C)NCC(O)c1ccc(O)c(CO)c1 (stereo not drawn) [Salbutamol Sulfate] | -0.199 | 0.6 | 0.327 | 0.731 |
| CCOC(=O)NCCCC(=O)NCCc1ccccc1 | -0.754 | 1.36 | 0.757 | 1.25 |
| CC[C@H](C)C[C@H](C)CCCCCCCCC(=O)N[C@H]1C[C@@H](O)[C@@H](NCCN)NC(=O)[C@@H]2[C@@H](O)CCN2C(=O)[C@H]([C@H](O)CCN)NC(=O)[C@H]([C@H](O)[C@@H](O)c2ccc(O)cc2)NC(=O)[C@@H]2C[C@@H](O)CN2C(=O)[C@H]([C@@H](C)O)NC1=O [Caspofungin Acetate] | 1.93 | 0.0128 | -0.471 | 0.746 |
| C[C@@]1(C(=O)Nc2ccc(F)nc2)CCCN1c1nc(Nc2cc(C3CC3)n[nH]2)c2cccn2n1 | -13.4 | -5.55 | -6.51 | 1.93 |
| CN(C)[C@@H](CCOc1cccc2ccccc12)c1ccccc1 [Dapoxetine HCl] | -0.0415 | -1.07 | -0.724 | -0.948 |
| Nc1nc2n[nH]nc2c(=O)[nH]1 [Azaguanine-8] | -1.62 | -0.853 | -0.851 | 0.104 |

| SMILES | nucleus area z-score [1] | total neurite length per nucleus (z-score) [2] | nucleus roundness z-score [3] | KCl-induced FOS+/EGR-1+ double-positive nuclei fraction z-score [4] |
| --- | --- | --- | --- | --- |
| COc1ccc(CCC(=O)c2c(O)cc(O[C@@H]3O[C@H](CO)[C@@H](O)[C@H](O)[C@H]3O[C@@H]3O[C@@H](C)[C@H](O)[C@@H](O)[C@H]3O)cc2O)cc1O [Neohesperidin Dihydrochalcone (Nhdc)] | 1.57 | -0.382 | -0.55 | 0.927 |
| NC1=N[C@@]2(c3cc(NC(=O)c4ccc(F)cn4)ccc3F)COC[C@H]2CS1 | 1.13 | -0.459 | -0.928 | -0.162 |
| Cc1nnc(SCC2=C(C(=O)O)N3C(=O)[C@@H](NC(=O)Cn4cnnn4)[C@H]3SC2)s1 [Cefazolin Sodium] | 0.433 | 1.2 | 0.611 | 1.22 |
| C[C@@H](Oc1cc(-n2cnc3ccc(CN4CCN(C)CC4)cc32)sc1C(N)=O)c1ccccc1C(F)(F)F | -3.41 | 0.267 | -0.211 | -0.851 |
| CC(=O)O[C@@]12CO[C@@H]1C[C@H](O)[C@@]1(C)C(=O)[C@H](O)C3=C(C)[C@@H](OC(=O)[C@H](O)[C@@H](NC(=O)OC(C)(C)C)c4ccccc4)C[C@@](O)([C@@H](OC(=O)c4ccccc4)[C@H]21)C3(C)C [Docetaxel Trihydrate] | -0.952 | 2.43 | -4 | -1.18 |
| CNC(=O)c1cc(Oc2ccc(NC(=O)Nc3cc(C(C)(C)C)nn3-c3ccc4ncccc4c3)c(F)c2)ccn1 [DCC-2036 (Rebastinib)] | -1.98 | -0.142 | 0.441 | -2.23 |
| Fc1ccc([C@@H]2CCNC[C@H]2COc2ccc3c(c2)OCO3)cc1 [Paroxetine HCl] | -0.452 | 0.389 | -0.121 | -2.08 |
| C[C@@](Cc1ccc(O)c(O)c1)(NN)C(=O)O [Carbidopa] | -0.172 | 0.7 | 0.874 | 0.579 |
| CC(=O)Nc1nc2c(Oc3cc(-c4ccc(C(F)(F)F)cc4)ncn3)cccc2s1 | 0.0521 | 1.2 | 1.39 | 2.09 |
| Cc1cc(O)cc(C)c1Cl [Chloroxylenol] | 0.193 | 0.994 | 0.985 | -0.0497 |
| COc1ccccc1N1CCN(CC(O)COc2cccc3ccccc23)CC1 (stereo not drawn) [Naftopidil DiHCl] | -4 | -1.7 | -0.654 | -0.142 |
| NC(=O)N1c2ccccc2C=Cc2ccccc21 [Carbamazepine] | 0.122 | 0.0584 | 0.275 | 0.432 |
| COc1c2ccoc2cc2oc(=O)ccc12 [Bergapten] | 1.31 | -0.192 | -0.45 | -1.84 |
| Cn1c(=O)c2nc[nH]c2n(C)c1=O [Theophylline] | -0.0288 | 0.176 | -0.109 | 0.0371 |
| CC(=O)Nc1nc(C)c(-c2ccc(Cl)c(S(=O)(=O)NCCO)c2)s1 | -0.887 | -0.191 | 0.195 | 0.129 |
| CC(=O)Oc1ccccc1C(=O)Nc1ncc([N+](=O)[O-])s1 [Nitazoxanide] | -0.581 | 0.705 | 1.17 | 1.01 |
| Cc1c(OCC(F)(F)F)ccnc1C[S@@+]([O-])c1nc2ccccc2[nH]1 [Dexlansoprazole] | -0.902 | 0.985 | 0.486 | -0.353 |
| CCCCC1C(=O)N(c2ccccc2)N(c2ccccc2)C1=O [Phenylbutazone] | -1.13 | 0.268 | -0.947 | -0.619 |

Entries shown so far with fluorine (8):

| SMILES | nucleus area z-score [1] | total neurite length per nucleus (z-score) [2] | nucleus roundness z-score [3] | KCl-induced FOS+/EGR-1+ double-positive nuclei fraction z-score [4] |
| --- | --- | --- | --- | --- |
| Cc1cc(-n2c(=O)[nH]c(=O)n(C)c2=O)ccc1Oc1ccc(SC(F)(F)F)cc1 [Toltrazuril] | -0.0206 | -0.586 | 0.202 | -0.218 |
| C[C@@]1(C(=O)Nc2ccc(F)nc2)CCCN1c1nc(Nc2cc(C3CC3)n[nH]2)c2cccn2n1 | -13.4 | -5.55 | -6.51 | 1.93 |
| NC1=N[C@@]2(c3cc(NC(=O)c4ccc(F)cn4)ccc3F)COC[C@H]2CS1 | 1.13 | -0.459 | -0.928 | -0.162 |
| C[C@@H](Oc1cc(-n2cnc3ccc(CN4CCN(C)CC4)cc32)sc1C(N)=O)c1ccccc1C(F)(F)F | -3.41 | 0.267 | -0.211 | -0.851 |
| CNC(=O)c1cc(Oc2ccc(NC(=O)Nc3cc(C(C)(C)C)nn3-c3ccc4ncccc4c3)c(F)c2)ccn1 [DCC-2036 (Rebastinib)] | -1.98 | -0.142 | 0.441 | -2.23 |
| Fc1ccc([C@@H]2CCNC[C@H]2COc2ccc3c(c2)OCO3)cc1 [Paroxetine HCl] | -0.452 | 0.389 | -0.121 | -2.08 |
| CC(=O)Nc1nc2c(Oc3cc(-c4ccc(C(F)(F)F)cc4)ncn3)cccc2s1 | 0.0521 | 1.2 | 1.39 | 2.09 |
| Cc1c(OCC(F)(F)F)ccnc1C[S@@+]([O-])c1nc2ccccc2[nH]1 [Dexlansoprazole] | -0.902 | 0.985 | 0.486 | -0.353 |
